Test results taken from PMC5790279, “Identification of novel leishmanicidal molecules by virtual and biochemical screenings targeting Leishmania eukaryotic translation initiation factor 4A” (PLoS Neglected Tropical Diseases, 2018).

How the values were obtained:
[1] = test system: L. infantum intramacrophage amastigotes; experiment: Macrophage infection assay, intramacrophage amastigotes; type: cell-based, Leishmania infantum; conditions: CC50 THP-1 / IC50 amastigotes
Experimental: [86] […] [87] […] [87]
After careful washing of PMA-treated THP-1 cells (50,000 cells/well) with warm serum-free RPMI-1640 (∼ 37°C) media, 50 μl of the diluted L. infantum promastigote culture were added at the optimized MOI (10:1). Control wells of THP-1 cells without the parasites, and THP-1 cells with the parasites, were set up in each 8-well Labtek slides. The slides were incubated at 37°C, 5% CO2 overnight. After incubation, infected wells were washed at least 3 times with serum-free RPMI-1640 media to ensure complete removal of non-engulfed promastigotes, and then they were incubated in presence of different concentrations of compounds for 24 h. Control groups were incubated in supplemented RPMI medium containing 1% DMSO. Cells were then fixed and stained with RAL 555 rapid stain kit (May-Grünwald Type) (Cell Path, Newtown, UK) following the manufacturer’s instructions. The number of infected cells per 100 macrophages and the total number of parasites per 100 cells observed were determined by light microscopy under immersion oil (1000X) by counting at least 100 cells per well. Three independent experiments were conducted for each compound concentration. These values allowed us to determine the mean values and standard deviations of the percentage of infected cells and the mean amastigote number per cell. To account for the overall parasite load, an Infection Index was calculated by multiplying these two values; then, to assess the infection inhibition by the compounds, the percentage of Inhibition Parasite Index (IPI) was determined as: IPI = 100 − ((Infection Index in treated cells/Infection Index in untreated cells) * 100).
The amastigote IC50 values were calculated for all tested compounds. Selectivity index was also determined for each compound as follows: SI = CC50/IC50. Data were analyzed with Kaleidagraph (Synergy). The statistical significance of differences was determined with the Student’s t-test (* p < 0.05; ** p < 0.01).

[2] = test system: L. infantum promastigotes; experiment: MTT viability assay on promastigotes; type: cell-based, Leishmania infantum; conditions: CC50 THP-1 / IC50 promastigotes

SMILES	Amastigotes SI [1]	Promastigotes SI [2]
CC(C)CCCC(C)C1CCC2C3CC(N)C4CC(O)CCC4(C)C3CCC12C (mixture of isomers) [Compound 208, 6-α/β-aminocholestanol]	31.7	10.6
CC(C)CCCC(C)C1CCC2C3CC(N)C4CC(O)CCC4(C)C3CCC12C (stereo not drawn) [Compound 20, 6-α-aminocholestanol]	37.5	9.7
CC(C)CCCC(C)C1CCC2C3CC(=O)C4CC(O)CCC4(C)C3CCC12C (stereo not drawn) [Compound 48, 6-ketocholestanol]	19.3	2.1
